Measurements: PMC5140066, “Electrophysiological Characteristics of Human iPSC-Derived Cardiomyocytes for the Assessment of Drug-Induced Proarrhythmic Potential” (PLoS ONE, 2016)

System: human induced pluripotent stem cell-derived cardiomyocytes (hiPSC-CMs)
Experiment: Field potential recording of hiPSC-CM sheets on multi-electrode array (MEA)
Assay type: cell-based
Description: The cells were thawed and suspended in iCell Cardiomyocytes Plating Medium (Cellular Dynamics International), then plated (approximately 2 × 10^6 cells/well) in 6-well tissue-culture plates coated with 0.1% gelatin. After two days of incubation at 37°C under an atmosphere of 5% CO2, the plating medium was replaced with iCell Cardiomyocytes Maintenance Medium (Cellular Dynamics International); this medium was used as the culture medium throughout the experiments and was replaced every 1 to 3 days. The cells were cultured for 7 to 14 days in a 5% CO2 incubator at 37°C and then re-plated onto MEA probes (MED-P515A or MED-PG515A; Alpha Med Scientific, Osaka, Japan).
The recording areas of the MEA probes were coated with fibronectin (Becton Dickinson, Franklin Lakes, NJ, USA; Invitrogen, Carlsbad, CA, USA; Corning, Corning, NY, USA). Fibronectin was dissolved in distilled water or Dulbecco's phosphate-buffered saline (PBS) [−] to give 50 μg/mL, the recording areas were covered with 2 μL fibronectin solution, and then the MEA probes were incubated at 37°C for at least 1 h. […] After discarding the fibronectin solution from the MEA probes without complete drying, the cell suspension at a density of 3.0 × 10^4 cells in a 2 μL droplet was re-plated onto the fibronectin-coated area of each MEA probe and incubated for 1 to 3 h in a 5% CO2 incubator at 37°C. Each well of the MEA probes was then filled with maintenance medium at a volume of 1 mL/well. The medium was replaced every 1 to 3 days thereafter, and the cells were cultured for 5 to 14 days to obtain high density cardiomyocyte-sheets with spontaneous and synchronous electrical activities.
Prior to recording FPs, the cardiomyocyte-sheets were equilibrated for at least 30 min in a 5% CO2 incubator at 37°C in fresh culture medium. The MEA probes were then transferred to a FP measurement apparatus (MED64 system; Alpha Med Scientific, Osaka, Japan) and covered with a lid through which humidified gas containing 5% CO2 was provided. […] Analogue FP signals from the spontaneously beating cardiomyocyte-sheets were acquired through a 0.1-Hz high-pass filter and a 5-kHz low-pass filter, and digitized at 20 kHz using the MED64 system. […] Compound stock solutions were prepared using DMSO at 1000-fold the target concentrations of the test compounds. The stock solutions were diluted with the maintenance medium to obtain the appropriate compound concentrations, then 1/10th to 1/50th the volume of the medium in the wells was exchanged with an equal volume of the compound-containing medium. The compounds were applied in a cumulative manner to the wells. The concentration of DMSO was 0.5–0.6% at the highest concentration of the test compounds. […] FPD (ms) and ISI (ms) were analyzed using Mobius QT software designed by WitWerx (Santa Cruz, CA, USA) (Fig 1b).
Baseline FP waveforms that met the following criteria were used for analysis. […] In the FP signals, EAD and TA were defined as slow negative spikes and a sharp deflection with an amplitude ≥ ± 100 μV, respectively (Fig 1c). EAD, TA or both usually appear during or after the second positive deflection. ISI, FPD and FPDcF were not calculated for concentrations in which EAD or TA were observed.
As previously mentioned, total 96 data equally from 4 facilities each were used for the analysis (24 data per facility). […] The root mean squared prediction error (RMSE) was used to show the level of accuracy of the equation predicted for the observed data (Fig 2). With categorical data analysis of FPD, inter-facilities differences were investigated with Kruskal-Wallis test (Fig 4).

[1] = E-4031 1 nM, all 4 facilities, n=24
[2] = E-4031 3 nM, all 4 facilities, n=24
[3] = E-4031 10 nM, all 4 facilities, n=24

Cc1cccc(CCN2CCC(C(=O)c3ccc(NS(C)(=O)=O)cc3)CC2)n1 [E-4031] was tested, and the “Preparations in absolute FPD category > 450 ms” value [1] was 29%(7/24), the “Preparations in absolute FPD category > 480 ms” value [1] was 8%(2/24) and the “Preparations in absolute FPD category > 500 ms” value [1] was 29%(7/24). For the same molecule, the “Preparations in absolute FPD category ≤ 450 ms” value [1] was 33%(8/24), the “Preparations in absolute FPD category > 450 ms” value (E-4031 1 nM, facility A, n=6) was 50%(3/6) and the “Preparations in absolute FPD category > 480 ms” value (E-4031 1 nM, facility A, n=6) was 0%(0/6). The “Preparations in absolute FPD category > 500 ms” value (E-4031 1 nM, facility A, n=6) was 33%(2/6), the “Preparations in absolute FPD category ≤ 450 ms” value (E-4031 1 nM, facility A, n=6) was 17%(1/6) and the “Preparations in absolute FPD category > 450 ms” value (E-4031 1 nM, facility B, n=6) was 50%(3/6). The “Preparations in absolute FPD category > 480 ms” value (E-4031 1 nM, facility B, n=6) was 0%(0/6), the “Preparations in absolute FPD category > 500 ms” value (E-4031 1 nM, facility B, n=6) was 0%(0/6) and the “Preparations in absolute FPD category ≤ 450 ms” value (E-4031 1 nM, facility B, n=6) was 50%(3/6). For the same molecule, the “Preparations in absolute FPD category > 450 ms” value (E-4031 1 nM, facility C, n=6) was 17%(1/6), the “Preparations in absolute FPD category > 480 ms” value (E-4031 1 nM, facility C, n=6) was 0%(0/6) and the “Preparations in absolute FPD category > 500 ms” value (E-4031 1 nM, facility C, n=6) was 17%(1/6). The “Preparations in absolute FPD category ≤ 450 ms” value (E-4031 1 nM, facility C, n=6) was 67%(4/6), the “Preparations in absolute FPD category > 450 ms” value (E-4031 1 nM, facility D, n=6) was 0%(0/6) and the “Preparations in absolute FPD category > 480 ms” value (E-4031 1 nM, facility D, n=6) was 33%(2/6). The “Preparations in absolute FPD category > 500 ms” value (E-4031 1 nM, facility D, n=6) was 67%(4/6), the “Preparations in absolute FPD category ≤ 450 ms” value (E-4031 1 nM, facility D, n=6) was 0%(0/6) and the “Preparations in absolute FPD category > 450 ms” value [2] was 29%(7/24). The “Preparations in absolute FPD category > 480 ms” value [2] was 13%(3/24), the “Preparations in absolute FPD category ≤ 450 ms” value [2] was 8%(2/24) and the “Preparations in absolute FPD category > 450 ms” value (E-4031 3 nM, facility A, n=6) was 33%(2/6). For the same molecule, the “Preparations in absolute FPD category > 480 ms” value (E-4031 3 nM, facility A, n=6) was 17%(1/6), the “Preparations in absolute FPD category > 500 ms” value (E-4031 3 nM, facility A, n=6) was 50%(3/6) and the “Preparations in absolute FPD category ≤ 450 ms” value (E-4031 3 nM, facility A, n=6) was 0%(0/6). The “Preparations in absolute FPD category > 450 ms” value (E-4031 3 nM, facility B, n=6) was 33%(2/6), the “Preparations in absolute FPD category > 480 ms” value (E-4031 3 nM, facility B, n=6) was 33%(2/6) and the “Preparations in absolute FPD category > 500 ms” value (E-4031 3 nM, facility B, n=6) was 33%(2/6). The “Preparations in absolute FPD category ≤ 450 ms” value (E-4031 3 nM, facility B, n=6) was 0%(0/6), the “Preparations in absolute FPD category > 450 ms” value (E-4031 3 nM, facility C, n=6) was 50%(3/6) and the “Preparations in absolute FPD category > 480 ms” value (E-4031 3 nM, facility C, n=6) was 0%(0/6). The “Preparations in absolute FPD category > 500 ms” value (E-4031 3 nM, facility C, n=6) was 17%(1/6), the “Preparations in absolute FPD category ≤ 450 ms” value (E-4031 3 nM, facility C, n=6) was 33%(2/6) and the “Preparations in absolute FPD category > 450 ms” value (E-4031 3 nM, facility D, n=6) was 0%(0/6). For the same molecule, the “Preparations in absolute FPD category > 480 ms” value (E-4031 3 nM, facility D, n=6) was 0%(0/6), the “Preparations in absolute FPD category > 500 ms” value (E-4031 3 nM, facility D, n=6) was 100%(6/6) and the “Preparations in absolute FPD category ≤ 450 ms” value (E-4031 3 nM, facility D, n=6) was 0%(0/6). The “Preparations in absolute FPD category > 450 ms” value [3] was 0%(0/24), the “Preparations in absolute FPD category > 480 ms” value [3] was 0%(0/24) and the “Preparations in absolute FPD category ≤ 450 ms” value [3] was 4%(1/24). The “Preparations with EAD/TA” value [3] was 29%(7/24), the “Number of preparations that showed EAD/TAs” value (E-4031 10 nM, all 4 facilities, of 24) was 7 preparations and the “Preparations in absolute FPD category > 450 ms” value (E-4031 10 nM, facility A, n=6) was 0%(0/6). For the same molecule, the “Preparations in absolute FPD category > 480 ms” value (E-4031 10 nM, facility A, n=6) was 0%(0/6), the “Preparations in absolute FPD category > 500 ms” value (E-4031 10 nM, facility A, n=6) was 67%(4/6) and the “Preparations in absolute FPD category ≤ 450 ms” value (E-4031 10 nM, facility A, n=6) was 0%(0/6). For the same molecule, the “Preparations with EAD/TA” value (E-4031 10 nM, facility A, n=6) was 33%(2/6), the “Preparations in absolute FPD category > 450 ms” value (E-4031 10 nM, facility B, n=6) was 0%(0/6) and the “Preparations in absolute FPD category > 480 ms” value (E-4031 10 nM, facility B, n=6) was 0%(0/6). For the same molecule, the “Preparations in absolute FPD category > 500 ms” value (E-4031 10 nM, facility B, n=6) was 100%(6/6), the “Preparations in absolute FPD category ≤ 450 ms” value (E-4031 10 nM, facility B, n=6) was 0%(0/6) and the “Preparations in absolute FPD category > 450 ms” value (E-4031 10 nM, facility C, n=6) was 0%(0/6). The “Preparations in absolute FPD category > 480 ms” value (E-4031 10 nM, facility C, n=6) was 0%(0/6), the “Preparations in absolute FPD category > 500 ms” value (E-4031 10 nM, facility C, n=6) was 83%(5/6) and the “Preparations in absolute FPD category ≤ 450 ms” value (E-4031 10 nM, facility C, n=6) was 17%(1/6). The “Preparations in absolute FPD category > 450 ms” value (E-4031 10 nM, facility D, n=6) was 0%(0/6), the “Preparations in absolute FPD category > 480 ms” value (E-4031 10 nM, facility D, n=6) was 0%(0/6) and the “Preparations in absolute FPD category > 500 ms” value (E-4031 10 nM, facility D, n=6) was 17%(1/6). The “Preparations in absolute FPD category ≤ 450 ms” value (E-4031 10 nM, facility D, n=6) was 0%(0/6), the “Preparations with EAD/TA” value (E-4031 10 nM, facility D, n=6) was 83%(5/6) and the “Preparations with EAD/TA” value (E-4031 30 nM, facility A, n=6) was 100%(6/6). The “Preparations with EAD/TA” value (E-4031 30 nM, facility B, n=6) was 100%(6/6), the “Preparations in absolute FPD category > 450 ms” value (E-4031 30 nM, facility C, n=6) was 0%(0/6) and the “Preparations in absolute FPD category > 480 ms” value (E-4031 30 nM, facility C, n=6) was 0%(0/6). The “Preparations in absolute FPD category > 500 ms” value (E-4031 30 nM, facility C, n=6) was 17%(1/6), the “Preparations in absolute FPD category ≤ 450 ms” value (E-4031 30 nM, facility C, n=6) was 0%(0/6) and the “Preparations with EAD/TA” value (E-4031 30 nM, facility C, n=6) was 83%(5/6). For the same molecule, the “Preparations with EAD/TA” value (E-4031 30 nM, facility D, n=6) was 100%(6/6), the “Preparations with EAD/TA” value (E-4031 100 nM, all 4 facilities, n=24) was 100%(24/24) and the “Preparations with EAD/TA” value (E-4031 100 nM, facility C, n=6) was 100%(6/6). For the same molecule, the “Delta FPDcF” value (categorical analysis, Fridericia correction, S5 Table) was “increased in a concentration-dependent manner”, the “Delta FPD” value (categorical analysis, S4 Table) was “increased in a concentration-dependent manner” and the “Effect on FPD” value (cumulative application) was “prolonged FPD in a concentration-dependent manner”.
